Among all 31,000 sequences or so, about 1,400 (4.5%) were called active.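 The calls were made as follows: active = median seed-adjusted z-score above 1 or below -1; inactive = the rest.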 This is one part of the list.
Assay: Novel Modifiers of Survival Motor Neuron (SMN) Protein: Gene Identification via Genome-wide siRNA Screen;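 also: luminescence tracks full-length SMN protein made from the SMN2 reporter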
Settings: HEK293T SMN2-luciferase reporter, siRNA knockdown, 72 h; actives lie on both sides
Outline: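 Luciferase signal, proportional to full-length SMN made from an SMN2 cDNA reporter in stable HEK293T cells, was read 72 h after siRNA reverse transfection. Values were expressed as MAD scores after non-targeting-control normalization and log10 conversion; seed analysis flagged off-targets.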

Row | Sequence | median seed-adjusted z-score
1 | GAGCAGAAAGGAUCACAGATT against TOR1A | inactive: -0.231
2 | GCUGUAAGCUAAGAACCCATT against SARS2 | inactive: 0.524
3 | GCACUCUGCUCAACACCUATT against GJA5 | inactive: 0.707
4 | GGAUCGAGACUUCAUAUCATT against CLSTN2 | inactive: 0
5 | GAACAUCCGUGAGCAAGGATT against KCNJ8 | inactive: 0.329
6 | CUAUCGAACGAGUAGCUUUTT against KCTD3 | inactive: 0.603
7 | CCUUCGCCGUCGUCUCAAATT against MCOLN1 | inactive: -0.522
8 | GAACUUCCUCCUGUACAGATT against B3GNT3 | inactive: 0.439
9 | GCAUUGCAUGAGAAGGUCATT against 5-Sep | inactive: -0.0749
10 | GCUCCUGUAUGAAUGCAAUTT against FBP2 | inactive: 0
11 | CAGGUUGCAUGGUCAAUAATT against DHRS12 | inactive: 0.118
12 | CCACUUUCCAUUUGCGAUATT against HEATR1 | inactive: -0.115
13 | GCUUAUGAACUGCUUCAUUTT against ST3GAL6 | inactive: -0.548
14 | CUUUCGUAUUUCAACAAGATT against CBLL1 | inactive: -0.466
15 | AAAUAUCAACGAGAACUUUTT against DNPEP | inactive: -0.293
16 | GAUCUGCAUCAAUACUGAATT against FBLN5 | inactive: -0.0832
17 | GACUUCUCCGGAAUCCGUATT against ADAM10 | inactive: 0.14
18 | GGACCUACUAUGUCUCCUATT against GRINA | inactive: 0.175
19 | CCACGAAAGUCAUUACCUUTT against GTPBP1 | inactive: -0.18
20 | GCCUCGUGGUUUGACAACATT against CTDSP1 | inactive: 0.28
21 | GAUAAAGACUCUGCACAAATT against ZCRB1 | inactive: 0.265
22 | GACGAGCUAUUUGCCGAGATT against RAP2B | inactive: -0.22

Row | Sequence | median seed-adjusted z-score
23 | AGCGGAUGGGUGUCACAAATT against FUT5 | inactive: 0
24 | CCUUAAAAAUUACCGAAAATT against CDKN3 | inactive: -0.03
25 | CGAAGUACCAAAAAGUUGATT against USP21 | inactive: 0.248
26 | GGUAAGAUGUCGAUCCUUATT against NAE1 | inactive: -0.453
27 | GAUACAGUUUUGGAUGAUATT against ASNSD1 | inactive: 0.437
28 | GGUUUGGUCGUAUUCCUAATT against NR1D2 | inactive: 0.0523
29 | GACCAACAUGAGUACUCAATT against ZNF560 | inactive: 0.0927
30 | GCAUAUCUUCUAACUUGCATT against EVI1 | inactive: 0
31 | GGAGUUACGAUAGCCGGAATT against DIAPH1 | inactive: 0.145
32 | AGAUAGUGCGGGUGACUCATT against ACSS1 | inactive: 0.243
33 | CUUGCAGCAUAUUACCUAUTT against MAN1A2 | inactive: 0.554
34 | GCUACUCACCUGAUAAAGATT against PLA2G7 | inactive: 0.292
35 | GAGUUACCAGAACAUUUGATT against RFK | inactive: -0.00532
36 | CAAACAAAGUUCGUUCCAATT against STX1A | inactive: 0
37 | CGCAGUCCGAGGACAUGUUTT against FOXD3 | inactive: 0.224
38 | CAGUAAGAAGGGUUCAAUATT against BTK | inactive: -0.0648
39 | CUUCAGGAGUUAUUACGGATT against MTMR11 | inactive: -0.0244
40 | CCACGAAUCCUCCAUGAAATT against PRM3 | inactive: 0.249
41 | CCCUAUAGCUUUACAUGCUTT against SDK1 | inactive: 0.604
42 | CAAUACCAAUUGAUGGAAATT against ALDH1A1 | inactive: -0.355
43 | GAAUUGUUUUAGCUAACGATT against PGM2 | inactive: 0.355
44 | CGACCACAUUUACCGACAATT against NR5A2 | inactive: -0.275

Seven consecutive records out of the list so far, for reference:
Row | Sequence | median seed-adjusted z-score
31 | GGAGUUACGAUAGCCGGAATT against DIAPH1 | inactive: 0.145
32 | AGAUAGUGCGGGUGACUCATT against ACSS1 | inactive: 0.243
33 | CUUGCAGCAUAUUACCUAUTT against MAN1A2 | inactive: 0.554
34 | GCUACUCACCUGAUAAAGATT against PLA2G7 | inactive: 0.292
35 | GAGUUACCAGAACAUUUGATT against RFK | inactive: -0.00532
36 | CAAACAAAGUUCGUUCCAATT against STX1A | inactive: 0
37 | CGCAGUCCGAGGACAUGUUTT against FOXD3 | inactive: 0.224

Carrying on.

Row | Sequence | median seed-adjusted z-score
45 | GGCAAAUAUCAGAUCAAAATT against AP2A2 | inactive: 0.158
46 | GGUCUGUGCCUGUCAAUAATT against HBM | inactive: 0
47 | CGCUUCAAGAGGUUCGGAATT against MLPH | active: -1.2
48 | GGAUUGCCCGUAAUUUCUATT against NDUFB5 | inactive: -0.122
49 | AGACCUACACGGUACGCGUTT against THAP11 | active: -1.36
50 | ACAAGAAGCUUGGAGAGAUTT against FN3KRP | inactive: 0.00247
51 | GGUAAAAGCUGUCACAAUATT against TRDN | inactive: 0.195
52 | AGCAGAAGAUGGUAGAUGATT against VIL1 | inactive: 0.368
53 | CGGUCAUUGUAGCUAUAGATT against ABCC9 | inactive: 0.376
54 | GCAUCCUCAUUUGCCCACATT against FGR | inactive: 0.596
55 | CAACGACAGAACUAACAGATT against SENP6 | active: -1.03
56 | CCAUCUCAGAUGUCCUAAATT against GCH1 | inactive: 0.569
57 | AGCCCUCGGUGAUUGAGAATT against MCAT | inactive: 0
58 | GUUCAGUGCUGCAAGGUCATT against AMZ1 | inactive: 0.205
59 | CCAACUACCGUGACAAUGUTT against PCDH12 | inactive: 0.0177
60 | AGAUCGUGGACUUCGCUAATT against NR1H2 | inactive: 0.069
61 | CAAUCAGAGUAGAAGUCGATT against DNAJA2 | inactive: 0
62 | GCAACUCUUUACAAACCUATT against PCDHGC3 | inactive: 0
63 | GGGUGGAGAUGCACGUUAATT against RDH5 | inactive: 0.305
64 | CUUUCCUCAUGUUUAUGAUTT against COX8C | inactive: -0.0513
65 | CAGUGACUGUUCCCAAUGATT against RACGAP1 | inactive: 0
66 | GAUUUUAGCACUACAACAATT against ZNF664 | active: 1.08

Row | Sequence | median seed-adjusted z-score
67 | CCGCCUCAUUUUUAACCCATT against HTR3D | inactive: 0.776
68 | UCAGUAUAUUUGUUUCGUATT against GTPBP3 | inactive: -0.197
69 | CUACAAGACUAAGAACGCATT against E4F1 | inactive: 0.698
70 | CCUUAGUAAAGAUAUAGGATT against ZNF527 | inactive: 0
71 | AGGUCAUUGCUGAGAAGUATT against FMNL1 | inactive: -0.3
72 | GGUAACCAGUUAAUGGAAATT against GJA9 | inactive: -0.00119
73 | CGGUAUUACCAACCUUAUATT against LDHAL6B | inactive: -0.192
74 | GGUUUCAACUGGACUUCUATT against MFSD5 | inactive: 0.205
75 | GGUCACCACCAAAUACGUUTT against B4GALNT2 | inactive: -0.174
76 | GAGCACCAGCAGUACGUGATT against GPER | inactive: 0.157
77 | GGACUGAAUCGGAGAUGGATT against BCL2L1 | inactive: 0.0801
78 | GGCGAAUUGUGGUCCUCAATT against SMPDL3B | inactive: 0.0704
79 | CUAUUGUAAAAGUAUGGAATT against ARL6IP2 | inactive: 0.274
80 | CCAGUAGCCUCUAUAAGCATT against OPN4 | inactive: 0.167
81 | CCAAGAGCGAGAUCAUAGATT against KRT3 | inactive: 0.399
82 | CAUUCACGGAGAUAAGAAATT against ALDH1L1 | inactive: 0.0289
83 | CCUGUAGACUGGAAUGACATT against DHX36 | inactive: 0.165
84 | AGACCAACCCUGGUACUUUTT against SRMS | active: -1.58
85 | GACACUGCAAUAAAAGGUATT against WIF1 | inactive: -0.521
86 | GUGCAUGACAUAGCAGAAATT against ADCK5 | inactive: 0.958
87 | GGGCUGUUAUUUCAAGAAATT against GALNT13 | inactive: -0.0149
88 | GUAUUGCCUUUGUCAAGAATT against SNX19 | inactive: 0.67

Row | Sequence | median seed-adjusted z-score
89 | CACUCUUACCUAUACCUUATT against NPY2R | inactive: 0.121
90 | GGAAUUCGAUGGGAACUUUTT against CACHD1 | inactive: 0.119
91 | GGACGACCACGGCUACAUUTT against CRYAA | active: -1.03
92 | GGCUUUUUGCUACAGAUGATT against OSGEP | inactive: 0.0178
93 | GCCGCAGCCUGAUUAUUGATT against CCS | inactive: 0.0581
94 | GGAAUGAUCAUGGUCGUGATT against CYSLTR1 | inactive: 0.364
95 | GCCGUGAUUACGUCCGUUATT against CCL22 | inactive: 0
96 | AGGAGAUCGUCGACCUGGUTT against TUBA3C | inactive: -0.0806
97 | CGGCCUGUCAGCAAAGUUATT against MGST2 | inactive: 0.387
98 | CCUACACCAUAAAGAGUAATT against COL10A1 | inactive: -0.0291
99 | AGAACGACACCGUCAAGUATT against PROKR1 | inactive: -0.507
100 | GACUUGCACUGGGAACCAATT against NPNT | inactive: 0.164
101 | GCAAGUUUAUGCUAGCUCUTT against FMO5 | inactive: 0.0069
102 | GAAUGUCACCGGAAAUCCATT against RANGAP1 | inactive: -0.0379
103 | CUACCGGAGUCAACAGUAATT against ARGFX | inactive: 0.273
104 | CCACCACUCCUUUCCCUAUTT against SCD | inactive: -0.982
105 | GAAGAUCAGCAAACGCAAATT against NRF1 | inactive: 0.608
106 | AGAGCGACCUCACCACCAATT against RAB1B | active: 1.55
107 | GGAUUGAAGACGAUAUGGATT against ITGA6 | inactive: -0.224
108 | CCACCAUUCUAAUCGAUUUTT against PPP2R3C | inactive: 0.295

Reference: PubChem BioAssay AID1347426 (Functional Genomics Laboratory (NCATS/FGL), 2020)
